Test results as given in PMC10594569.
Read-outs that look alike come from different tables or passages of the source. Results are given in words; binding and its absence hold for the method and conditions named. Binding seen in cells or lysates may run through a third protein. Some results given as binding are weak or reduced against the parent protein; the word gives no strength. Each block holds one molecule with its values, some of them ahead of it.

Chains of the proteins cited; added tags and fusions are not shown.
UniProt Q3UHD9: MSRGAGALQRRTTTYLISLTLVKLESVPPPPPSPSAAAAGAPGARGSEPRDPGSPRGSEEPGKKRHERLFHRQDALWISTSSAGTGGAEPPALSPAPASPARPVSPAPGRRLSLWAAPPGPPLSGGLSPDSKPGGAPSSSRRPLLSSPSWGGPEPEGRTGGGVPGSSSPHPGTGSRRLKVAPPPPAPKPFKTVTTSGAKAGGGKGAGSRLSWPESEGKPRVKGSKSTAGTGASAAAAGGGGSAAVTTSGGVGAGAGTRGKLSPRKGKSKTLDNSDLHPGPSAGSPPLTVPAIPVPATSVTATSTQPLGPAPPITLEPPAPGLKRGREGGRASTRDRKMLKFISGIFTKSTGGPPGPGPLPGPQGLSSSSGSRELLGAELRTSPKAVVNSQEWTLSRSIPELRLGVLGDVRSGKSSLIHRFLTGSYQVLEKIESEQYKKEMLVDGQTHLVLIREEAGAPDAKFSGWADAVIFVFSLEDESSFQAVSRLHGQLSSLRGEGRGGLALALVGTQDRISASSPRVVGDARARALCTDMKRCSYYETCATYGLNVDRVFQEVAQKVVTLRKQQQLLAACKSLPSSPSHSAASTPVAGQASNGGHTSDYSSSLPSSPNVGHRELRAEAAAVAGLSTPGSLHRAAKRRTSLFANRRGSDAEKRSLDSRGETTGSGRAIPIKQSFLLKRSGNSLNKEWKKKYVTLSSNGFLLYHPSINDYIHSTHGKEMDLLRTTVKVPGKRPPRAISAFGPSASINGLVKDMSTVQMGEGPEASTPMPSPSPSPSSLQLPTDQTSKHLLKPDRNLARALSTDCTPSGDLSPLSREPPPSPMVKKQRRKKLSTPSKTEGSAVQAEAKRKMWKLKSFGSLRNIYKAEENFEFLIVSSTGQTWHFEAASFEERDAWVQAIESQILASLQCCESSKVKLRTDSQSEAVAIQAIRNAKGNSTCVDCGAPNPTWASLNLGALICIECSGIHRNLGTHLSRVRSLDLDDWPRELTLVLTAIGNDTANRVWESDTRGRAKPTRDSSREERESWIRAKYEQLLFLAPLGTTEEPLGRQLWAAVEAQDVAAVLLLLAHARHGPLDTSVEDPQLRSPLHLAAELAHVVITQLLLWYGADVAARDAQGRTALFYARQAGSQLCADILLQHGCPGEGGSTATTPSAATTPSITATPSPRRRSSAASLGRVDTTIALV
UniProt P63073: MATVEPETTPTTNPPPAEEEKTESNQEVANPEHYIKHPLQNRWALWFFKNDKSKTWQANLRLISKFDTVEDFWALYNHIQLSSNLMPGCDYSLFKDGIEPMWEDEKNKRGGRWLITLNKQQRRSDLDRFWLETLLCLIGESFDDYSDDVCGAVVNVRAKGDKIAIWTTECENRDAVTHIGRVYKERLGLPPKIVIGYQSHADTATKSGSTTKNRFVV
UniProt Q6QI06: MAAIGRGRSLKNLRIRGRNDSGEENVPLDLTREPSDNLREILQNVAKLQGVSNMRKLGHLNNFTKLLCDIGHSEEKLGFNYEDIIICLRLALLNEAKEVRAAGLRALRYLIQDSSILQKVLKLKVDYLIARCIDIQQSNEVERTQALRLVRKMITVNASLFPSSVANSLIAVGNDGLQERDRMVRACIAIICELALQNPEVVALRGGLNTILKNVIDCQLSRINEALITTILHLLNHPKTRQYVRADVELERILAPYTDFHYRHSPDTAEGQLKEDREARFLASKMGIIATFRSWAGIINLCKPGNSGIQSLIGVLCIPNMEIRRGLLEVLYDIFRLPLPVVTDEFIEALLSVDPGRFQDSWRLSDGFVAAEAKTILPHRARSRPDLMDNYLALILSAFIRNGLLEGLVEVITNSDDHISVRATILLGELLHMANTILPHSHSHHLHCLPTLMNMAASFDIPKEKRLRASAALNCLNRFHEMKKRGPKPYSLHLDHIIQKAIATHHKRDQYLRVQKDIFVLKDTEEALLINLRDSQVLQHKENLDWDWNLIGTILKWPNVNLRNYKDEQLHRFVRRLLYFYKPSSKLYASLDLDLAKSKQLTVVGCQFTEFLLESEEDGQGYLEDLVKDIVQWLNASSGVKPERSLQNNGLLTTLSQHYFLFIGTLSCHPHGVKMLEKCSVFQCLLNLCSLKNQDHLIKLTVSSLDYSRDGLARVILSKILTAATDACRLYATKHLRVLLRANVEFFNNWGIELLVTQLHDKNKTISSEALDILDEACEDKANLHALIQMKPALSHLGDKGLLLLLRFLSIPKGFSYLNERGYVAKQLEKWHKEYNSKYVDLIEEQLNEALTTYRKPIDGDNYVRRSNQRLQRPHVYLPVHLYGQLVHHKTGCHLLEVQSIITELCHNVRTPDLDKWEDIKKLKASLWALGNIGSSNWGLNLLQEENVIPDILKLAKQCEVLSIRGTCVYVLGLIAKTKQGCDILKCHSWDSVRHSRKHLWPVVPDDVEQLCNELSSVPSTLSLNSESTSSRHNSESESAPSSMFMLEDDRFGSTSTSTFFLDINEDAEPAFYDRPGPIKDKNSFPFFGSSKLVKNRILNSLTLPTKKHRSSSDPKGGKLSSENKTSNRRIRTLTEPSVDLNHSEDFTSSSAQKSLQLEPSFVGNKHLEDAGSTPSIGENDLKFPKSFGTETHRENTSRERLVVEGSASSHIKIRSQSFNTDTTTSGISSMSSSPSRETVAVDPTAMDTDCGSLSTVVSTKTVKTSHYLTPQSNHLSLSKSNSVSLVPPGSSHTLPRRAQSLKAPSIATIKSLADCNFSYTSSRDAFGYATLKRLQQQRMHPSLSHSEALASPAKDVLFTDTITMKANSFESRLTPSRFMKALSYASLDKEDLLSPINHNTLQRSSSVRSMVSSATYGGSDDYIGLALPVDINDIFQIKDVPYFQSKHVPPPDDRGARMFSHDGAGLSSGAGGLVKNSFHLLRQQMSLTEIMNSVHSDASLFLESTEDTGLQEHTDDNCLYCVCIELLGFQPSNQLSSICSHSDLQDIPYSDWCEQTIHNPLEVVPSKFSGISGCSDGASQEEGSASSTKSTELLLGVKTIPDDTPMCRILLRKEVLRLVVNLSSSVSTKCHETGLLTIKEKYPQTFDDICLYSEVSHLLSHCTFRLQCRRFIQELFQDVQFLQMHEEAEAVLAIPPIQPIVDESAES
UniProt Q8BSK8: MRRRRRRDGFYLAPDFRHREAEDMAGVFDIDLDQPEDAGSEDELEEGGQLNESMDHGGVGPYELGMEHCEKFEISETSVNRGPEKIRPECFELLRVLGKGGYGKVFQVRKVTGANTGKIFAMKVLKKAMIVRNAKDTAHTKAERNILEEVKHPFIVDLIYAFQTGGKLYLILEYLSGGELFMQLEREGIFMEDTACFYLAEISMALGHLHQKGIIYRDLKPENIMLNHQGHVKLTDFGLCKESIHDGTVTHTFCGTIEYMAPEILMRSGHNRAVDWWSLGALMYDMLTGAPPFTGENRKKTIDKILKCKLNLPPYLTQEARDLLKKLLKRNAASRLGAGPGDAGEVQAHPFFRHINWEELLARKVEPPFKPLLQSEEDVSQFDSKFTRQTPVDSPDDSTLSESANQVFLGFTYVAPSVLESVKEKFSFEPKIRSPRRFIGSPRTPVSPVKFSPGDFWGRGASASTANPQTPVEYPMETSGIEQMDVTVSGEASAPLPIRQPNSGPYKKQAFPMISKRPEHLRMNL

Legend:
Assay in all cases: co-IP; quantitative multiplex coimmunoprecipitation (QMI): IP antibodies on Luminex beads in NIH 3T3 lysate (1% digitonin, 150 mM NaCl, 50 mM Tris pH 7.4) overnight at 4 °C, biotinylated probe antibodies, streptavidin-phycoerythrin, median fluorescent intensity of each IP_Probe pair; cells at baseline, serum starved 12 h, or refed 5, 15 or 60 min, without or with BKM120, AZD5363, RAD001, FR180204, U0126, PD98059, Torin-1, sapanisertib or Rapalink-1
[1] = biological target: PIKE (mouse (endogenous in NIH 3T3)) (UniProt Q3UHD9)
[2] = biological target: EIF4E (mouse (endogenous in NIH 3T3)) (UniProt P63073)
[3] = biological target: PIKE (mouse (endogenous in NIH 3T3)) (UniProt Q3UHD9); remark: listed apart in the source
[4] = biological target: EIF4E (mouse (endogenous in NIH 3T3)) (UniProt P63073); remark: listed apart in the source

Molecule: EIF4E (from UniProt P63073 1-217)
binding [1]: binds

Molecule: RICTOR (from UniProt Q6QI06 1-1708)
binding [2]: binds

Continued, values first:

binding [2]: binds
Molecule: p70S6 (from UniProt Q8BSK8 1-525)

binding [3]: binds
binding [4]: binds
B1: TSC1 (protein, UniProt Q9EP53 1-1161)
chain: MAQLANIGELLSMLDSSTLGVRDDVTAIFKESLNSERGPMLVNTLVDYYLETNSQPVLHILTTLQEPHDKHLLDKINEYVGKAATRLSILSLLGHVVRLQPSWKHKLSQAPLLPSLLKCLKMDTDVVVLTTGVLVLITMLPMIPQSGKQHLLDFFDIFGRLSSWCLKKPGHVTEVYLVHLHASVYALFHRLYGMYPCNFVSFLRSHYSMKENVETFEEVVKPMMEHVRIHPELVTGSKDHELDPRRWKTLETHDVVIECAKISLDPTEASYEDGYSVSHQLSACFPYRSADVTTSPYVDTQNSYGGSTSTPSSSSRLMLFSPPGQLPQSLSSPSTRLLPEPLQASLWSPSAVCGMTTPPTSPGNVPADLSHPYSKAFGTTAGGKGTPSGTPATSPPPAPPCPQDDCVHGSAAQASATAPRKEERADSSRPYLHRQSNDRGLEDPPGSKGSVTLRNLPDFLGDLASEEDSIEKDKEEAAISKELSEITTAEADPVVPRGGFDSPFYRDSLSGSQRKTHSAASGTQGSSVNPEPLHSSLDKHGPDTPKQAFTPIDPPSGSADVSPAGDRDRQTSLETSILTPSPCKIPPQRGVSFGSGQLPPYDHLFEVALPKTACHFVSKKTEELLKKVKGNPEEDCVPSTSPMEVLDRLIEQGAGAHSKELSRLSLPSKSVDWTHFGGSPPSDELRTLRDQLLLLHNQLLYERFKRQQHALRNRRLLRKVIRAAALEEHNAAMKDQLKLQEKDIQMWKVSLQKEQARYSQLQEQRDTMVTQLHSQIRQLQHDREEFYNQSQELQTKLEDCRNMIAELRVELKKANNKVCHTELLLSQVSQKLSNSESVQQQMEFLNRQLLVLGEVNELYLEQLQSKHPDTTKEVEMMKTAYRKELEKNRSHLLQQNQRLDASQRRVLELESLLAKKDHLLLEQKKYLEDVKSQASGQLLAAESRYEAQRKITRVLELEILDLYGRLEKDGRLRKLEEDRAEAAEAAEERLDCCSDGCTDSLVGHNEEASGHNGETRTSRPGGTRASCGGRVTGGSSSSSSELSTPEKPPSQRFSSRWEPALGEPSSSIPTTVGSLPSSKSFLGMKARELFRNKSESQCDEDSVTMSSSSLSETLKTELGKDSGTENKTSLSLDAPHPSSPNSDNVGQLHIMDYNETHPEHS
